From PubChem BioAssay AID504444 (National Center for Advancing Translational Sciences (NCATS), 2011)
Screen size: about 360,000 compounds; about 7,500 (2.1%) were called active. The shares of active, inactive and inconclusive entries below differ from those in the screen. The call rests on the fitted dose curve; in most records, active means well fitted inhibition curve with a large enough effect; inconclusive means small, poorly fitted or top-dose-only effect, or effect the other way; inactive means flat fitted curve, though single readings scatter. Potencies of inconclusive entries are doubtful fits and often do not repeat.

assay: Nrf2 qHTS screen for inhibitors; settings: A549 ARE-Fluc reporter, luciferase luminescence, 18-24 h; activity change, negative = inhibition: at 46 µM (top of the series); further: nearly all actives have a fitted effect of over 60% in size
Procedure, shortened: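 Concentration-response testing used A549 ARE_Fluc cells at 5000 cells/well. Following an 18-24 h compound incubation, viability was read by fluorescence (Ex 405/Em 525) and luciferase output by luminescence.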
On the % scale 0 is the no-effect control and ±100 the full control effect; potency means the concentration at half of the fitted maximal effect.

SMILES	Potency	activity change, negative = inhibition
O=C(CCCSc1nc2ccccc2[nH]1)N1CCN(c2ccccc2)CC1	inconclusive: 14.6 µM [falling, partial curve, poor fit]	
CNC(=O)COC(=O)c1c2c(nc3ccccc13)CCC2		inactive: 5.01%
COCCn1c(SCC(=O)Nc2ccc(S(=O)(=O)N3CCOCC3)cc2)nc2ccccc21	inconclusive: 29.1 µM [falling, single point]	
Cc1cc(NC(=O)CSc2nc3c(c(=O)n2CCc2ccccc2)SC(C)C3)no1 (configuration not stated)	inconclusive: 29.1 µM [falling, single point]	
Cc1ccc(-c2cc(-c3ccccc3C)[nH]n2)c(O)c1	inconclusive: 25.9 µM [activator, single point]	
CC(=O)Nc1ccc(SCc2ncc(-c3ccccc3)o2)cc1	inconclusive: 13 µM [activator, partial curve]	
Cc1nc2ccccc2c(N)c1C(=O)/C=C/c1ccccc1	inconclusive: 29.1 µM [falling, single point]	
CCC(=O)NC1CCN(C(=S)NC)CC1	inconclusive: 0.0206 µM [activator, full curve, poor fit]	
COc1ccc(-c2cc(C(=O)Nc3c(C)n(C)n(-c4ccccc4)c3=O)c3ccccc3n2)cc1		inactive: 14.9%
O=S(=O)(Nc1nc(-c2sccc2Cl)cs1)c1cc(Cl)ccc1Cl	inconclusive: 25.9 µM [falling, partial curve, poor fit]	
CCCOc1ccc(CNC(=O)c2ccc3nc(N4CCOCC4)sc3c2)cc1	inconclusive: 32.6 µM [falling, single point]	
COc1ccc(NC(=O)CC2C(=O)N(C)C(=S)N2CCc2ccccc2)cc1 (configuration not stated)	inconclusive: 0.82 µM [activator, full curve, poor fit]	
COc1ccc(C(=O)Nn2c(SCc3ccc([N+](=O)[O-])cc3)nc3ccccc3c2=O)cc1	inconclusive: 6.51 µM [activator, single point]	
COc1cccc(-c2cc(C(=O)NCc3cccs3)no2)c1	inconclusive: 2.59 µM [activator, full curve]	
c1ccc(CNCc2nnc(-c3cc4ccccc4[nH]3)o2)cc1		inactive: 14.9%
Cn1c2ccccc2c2c(C(=O)N3CCN(c4cccc(Cl)c4)CC3)cn(C3CCCCC3)c(=O)c21	inconclusive: 9.2 µM [falling, partial curve, poor fit]	
Cc1ccc(Cl)cc1N1CCN(C(=O)c2ccc(NS(=O)(=O)c3c(C)noc3C)cc2)CC1	inconclusive: 25.9 µM [falling, partial curve, poor fit]	
Cc1ccc(C(=O)N/N=C/c2ccc(N3CCOCC3)cc2)c(C)c1	inconclusive: 6.51 µM [falling, single point]	
O=C1C(=O)N(C2CCN(S(=O)(=O)c3ccccc3)CC2)CCN1Cc1ccccc1	inconclusive: 29.1 µM [activator, single point]	
COc1cccc(C(C#N)N2CCOCC2)c1 (configuration not stated)	inconclusive: 29.1 µM [activator, single point]	
Cc1nnc(SCC(=O)N2CC(=O)Nc3ccccc32)s1		inactive: 0.179%

SMILES	Potency	activity change, negative = inhibition
CC(O)Cn1nc([N+](=O)[O-])nc1N (configuration not stated)		inactive: 7.07%
O=Cc1ccc(OCC(=O)Nc2ccccc2-c2ccccc2)cc1	inconclusive: 16.4 µM [falling, partial curve, poor fit]	
CCCCCCn1c(N2CCCC2)nc2c1c(=O)[nH]c(=O)n2C	inconclusive: 29.1 µM [falling, single point]	
Cc1cc(C)c2c(c1)SC1=NC(c3ccccc3)(C(F)(F)F)NC(=O)N12 (configuration not stated)	inconclusive: 16.4 µM [activator, single point]	
CCOC(=O)c1ccccc1NC(=O)c1ccccc1NS(C)(=O)=O		inactive: 19.8%
C(=N/Nc1cc(N2CCOCC2)nc(N2CCOCC2)n1)/c1ccccc1	inconclusive: 5.17 µM [falling, single point]	
O=C(CSCc1ccc(Cl)c(Cl)c1)Nc1c[nH]c(=O)[nH]c1=O		inactive: -21.2%
COc1ccc(Nc2nc(S(=O)(=O)c3ccc(C)cc3)c(Cl)s2)cc1	inconclusive: 18.4 µM [activator, partial curve, poor fit]	
CCOC(=O)C(=O)NCC(c1cccnc1)N1CCN(c2ccccc2)CC1 (configuration not stated)	inconclusive: 14.6 µM [falling, single point]	
CCOC(=O)CC(NC(=O)c1cc2cc(Br)cc(OC)c2oc1=O)c1ccc(OC)cc1 (configuration not stated)	inconclusive: 6.51 µM [falling, single point]	
CNC(=O)CSCc1cnn(-c2ccccc2)c1-n1cccc1		inactive: 5.24%
CN(C)c1ccc(C(=O)C(O)c2ccccc2)cc1 (configuration not stated)	inconclusive: 2.31 µM [activator, full curve]	
CCC1CN(C(=O)NCc2ccccc2)c2cc(Cl)ccc2O1 (configuration not stated)	inconclusive: 29.1 µM [falling, partial curve, poor fit]	
CCOc1ccc2[nH]c3c(N4CCc5ccccc5C4)ncnc3c2c1	inconclusive: 29.1 µM [falling, partial curve, poor fit]	
CCOC(=O)c1ccc(NC(=O)CSc2ccc(-c3ccccn3)nn2)cc1	active: 20.6 µM	
O=C(CCCSc1ccccc1)Nc1ccc(Cl)c(S(=O)(=O)N2CCOCC2)c1	inconclusive: 20.6 µM [falling, single point]	
Nc1cc(=O)[nH]c(SCC(=O)N2CCC(Cc3ccccc3)CC2)n1	inconclusive: 14.6 µM [falling, single point]	
Cc1cc(N)ncc1[N+](=O)[O-]		inactive: -3.53%
Cc1cccc(NC(=O)COc2coc(CN3CCN(c4ccccc4)CC3)cc2=O)c1C	inconclusive: 20.6 µM [falling, single point]	
CCCn1nc(C(=O)Nc2cccc(S(=O)(=O)N(C)c3ccccc3)c2)c2ccccc2c1=O	inconclusive: 8.2 µM [falling, partial curve]	
CCc1ccc(NC(=O)CSc2ccc(-c3cccnc3)nn2)cc1	inconclusive: 7.31 µM [falling, partial curve, poor fit]	

Retrieved one by one from the list above:
SMILES	Potency	activity change, negative = inhibition
CCOC(=O)c1ccc(NC(=O)CSc2ccc(-c3ccccn3)nn2)cc1	active: 20.6 µM	
CCCn1nc(C(=O)Nc2cccc(S(=O)(=O)N(C)c3ccccc3)c2)c2ccccc2c1=O	inconclusive: 8.2 µM [falling, partial curve]	
Cc1ccc(-c2cc(-c3ccccc3C)[nH]n2)c(O)c1	inconclusive: 25.9 µM [activator, single point]	
CCc1ccc(NC(=O)CSc2ccc(-c3cccnc3)nn2)cc1	inconclusive: 7.31 µM [falling, partial curve, poor fit]	
